# Data reported in patent US20040259096.
# Chains of the proteins cited; added tags and fusions are not shown. Chains listed by the source or under a name are the forms on record and can include a tag or linker.
# AhR/GST-ARNT(1-474) heterodimer (Mus musculus), one chain, as listed by the source, chain 1 of 2: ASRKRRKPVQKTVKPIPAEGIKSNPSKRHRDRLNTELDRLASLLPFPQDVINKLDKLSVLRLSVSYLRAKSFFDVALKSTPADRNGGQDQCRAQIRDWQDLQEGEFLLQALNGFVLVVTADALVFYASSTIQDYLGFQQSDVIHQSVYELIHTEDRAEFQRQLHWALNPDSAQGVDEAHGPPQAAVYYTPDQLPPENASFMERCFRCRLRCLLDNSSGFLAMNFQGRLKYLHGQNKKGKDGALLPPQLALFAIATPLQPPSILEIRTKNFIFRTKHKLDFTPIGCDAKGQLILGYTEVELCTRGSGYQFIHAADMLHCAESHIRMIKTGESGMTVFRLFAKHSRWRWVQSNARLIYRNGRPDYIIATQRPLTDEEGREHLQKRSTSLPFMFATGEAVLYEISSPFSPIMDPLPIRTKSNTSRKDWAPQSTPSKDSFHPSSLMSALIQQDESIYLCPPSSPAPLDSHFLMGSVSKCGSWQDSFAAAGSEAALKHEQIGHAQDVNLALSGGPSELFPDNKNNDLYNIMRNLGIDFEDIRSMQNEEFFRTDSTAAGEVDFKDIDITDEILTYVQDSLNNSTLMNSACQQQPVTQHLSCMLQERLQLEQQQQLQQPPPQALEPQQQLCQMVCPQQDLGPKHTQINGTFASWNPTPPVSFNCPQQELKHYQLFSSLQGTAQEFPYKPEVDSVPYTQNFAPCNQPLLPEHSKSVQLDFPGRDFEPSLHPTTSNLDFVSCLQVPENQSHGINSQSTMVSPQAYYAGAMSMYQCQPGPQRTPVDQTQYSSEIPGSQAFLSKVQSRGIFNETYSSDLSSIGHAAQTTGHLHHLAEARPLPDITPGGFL
# AhR/ARNT heteromer (rat liver) (Rattus norvegicus), one chain, as listed by the source, chain 2 of 2: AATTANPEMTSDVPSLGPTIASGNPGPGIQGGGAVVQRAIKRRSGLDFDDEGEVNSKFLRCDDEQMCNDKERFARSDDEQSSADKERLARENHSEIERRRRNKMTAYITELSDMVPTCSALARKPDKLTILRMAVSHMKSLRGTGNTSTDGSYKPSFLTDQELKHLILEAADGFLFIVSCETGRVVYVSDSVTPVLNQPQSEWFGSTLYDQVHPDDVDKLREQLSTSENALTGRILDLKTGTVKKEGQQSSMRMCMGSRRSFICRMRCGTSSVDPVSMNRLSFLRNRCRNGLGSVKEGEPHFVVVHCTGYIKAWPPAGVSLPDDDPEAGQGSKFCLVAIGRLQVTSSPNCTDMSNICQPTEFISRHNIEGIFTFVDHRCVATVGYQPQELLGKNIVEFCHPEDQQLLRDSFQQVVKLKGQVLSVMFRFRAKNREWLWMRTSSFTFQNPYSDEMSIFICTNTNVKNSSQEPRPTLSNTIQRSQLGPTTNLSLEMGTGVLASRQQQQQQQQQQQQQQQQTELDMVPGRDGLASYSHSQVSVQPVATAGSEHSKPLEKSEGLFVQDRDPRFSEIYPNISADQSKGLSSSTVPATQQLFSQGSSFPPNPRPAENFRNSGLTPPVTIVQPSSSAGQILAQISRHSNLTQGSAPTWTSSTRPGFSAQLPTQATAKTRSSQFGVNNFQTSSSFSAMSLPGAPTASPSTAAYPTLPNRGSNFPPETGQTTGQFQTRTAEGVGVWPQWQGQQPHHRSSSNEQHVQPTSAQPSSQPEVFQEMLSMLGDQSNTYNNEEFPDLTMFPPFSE
# AhR/ARNT heteromer (rat liver) (Rattus norvegicus), one chain, as listed by the source, chain 1 of 2: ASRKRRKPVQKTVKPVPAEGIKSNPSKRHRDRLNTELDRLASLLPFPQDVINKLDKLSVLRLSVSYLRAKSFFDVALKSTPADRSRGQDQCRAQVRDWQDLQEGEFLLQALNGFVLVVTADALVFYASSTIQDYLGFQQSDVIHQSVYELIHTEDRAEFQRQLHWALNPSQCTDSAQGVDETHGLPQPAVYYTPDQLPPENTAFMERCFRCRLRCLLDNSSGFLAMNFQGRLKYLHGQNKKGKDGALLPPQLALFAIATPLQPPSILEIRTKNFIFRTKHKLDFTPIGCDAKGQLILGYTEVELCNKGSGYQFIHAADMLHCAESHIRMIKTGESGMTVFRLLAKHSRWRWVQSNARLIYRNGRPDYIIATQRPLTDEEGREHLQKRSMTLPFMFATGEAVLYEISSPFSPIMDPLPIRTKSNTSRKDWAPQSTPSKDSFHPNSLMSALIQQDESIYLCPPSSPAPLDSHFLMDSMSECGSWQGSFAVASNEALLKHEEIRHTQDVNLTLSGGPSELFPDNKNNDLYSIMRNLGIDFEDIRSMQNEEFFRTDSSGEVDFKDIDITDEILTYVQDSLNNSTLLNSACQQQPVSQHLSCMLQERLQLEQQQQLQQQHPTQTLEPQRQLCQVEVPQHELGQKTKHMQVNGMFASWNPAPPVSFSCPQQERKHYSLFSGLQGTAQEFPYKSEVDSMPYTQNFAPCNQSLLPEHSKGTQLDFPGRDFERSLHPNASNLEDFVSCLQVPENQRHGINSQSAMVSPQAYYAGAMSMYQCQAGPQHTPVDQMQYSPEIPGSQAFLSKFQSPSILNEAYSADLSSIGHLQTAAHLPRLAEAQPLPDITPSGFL
# AhR/ARNT heteromer (Hepa 1c1c7) (Mus musculus), one chain, as listed by the source, chain 2 of 2: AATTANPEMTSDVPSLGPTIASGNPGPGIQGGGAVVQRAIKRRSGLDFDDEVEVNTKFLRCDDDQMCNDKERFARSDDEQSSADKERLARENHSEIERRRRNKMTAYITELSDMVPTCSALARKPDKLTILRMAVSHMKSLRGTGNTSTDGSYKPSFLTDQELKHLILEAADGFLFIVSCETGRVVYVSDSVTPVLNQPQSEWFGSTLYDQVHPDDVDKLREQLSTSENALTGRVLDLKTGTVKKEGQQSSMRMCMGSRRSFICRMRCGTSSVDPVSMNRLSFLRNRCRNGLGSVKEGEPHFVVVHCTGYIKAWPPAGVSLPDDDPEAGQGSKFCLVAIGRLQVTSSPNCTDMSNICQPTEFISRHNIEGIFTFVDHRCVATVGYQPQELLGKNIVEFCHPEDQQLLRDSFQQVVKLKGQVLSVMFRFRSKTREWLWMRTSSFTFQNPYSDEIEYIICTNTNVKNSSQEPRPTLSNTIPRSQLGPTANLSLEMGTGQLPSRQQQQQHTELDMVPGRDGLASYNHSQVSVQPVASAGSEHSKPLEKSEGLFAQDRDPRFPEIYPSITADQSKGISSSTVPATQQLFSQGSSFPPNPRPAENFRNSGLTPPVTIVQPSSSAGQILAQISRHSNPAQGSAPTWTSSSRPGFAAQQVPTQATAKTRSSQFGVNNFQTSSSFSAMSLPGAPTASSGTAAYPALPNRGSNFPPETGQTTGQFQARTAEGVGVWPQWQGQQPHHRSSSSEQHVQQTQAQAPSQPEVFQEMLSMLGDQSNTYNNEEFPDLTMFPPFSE
# AhR/ARNT heteromer (guinea pig liver) (Cavia porcellus), one chain, as listed by the source, chain 2 of 2: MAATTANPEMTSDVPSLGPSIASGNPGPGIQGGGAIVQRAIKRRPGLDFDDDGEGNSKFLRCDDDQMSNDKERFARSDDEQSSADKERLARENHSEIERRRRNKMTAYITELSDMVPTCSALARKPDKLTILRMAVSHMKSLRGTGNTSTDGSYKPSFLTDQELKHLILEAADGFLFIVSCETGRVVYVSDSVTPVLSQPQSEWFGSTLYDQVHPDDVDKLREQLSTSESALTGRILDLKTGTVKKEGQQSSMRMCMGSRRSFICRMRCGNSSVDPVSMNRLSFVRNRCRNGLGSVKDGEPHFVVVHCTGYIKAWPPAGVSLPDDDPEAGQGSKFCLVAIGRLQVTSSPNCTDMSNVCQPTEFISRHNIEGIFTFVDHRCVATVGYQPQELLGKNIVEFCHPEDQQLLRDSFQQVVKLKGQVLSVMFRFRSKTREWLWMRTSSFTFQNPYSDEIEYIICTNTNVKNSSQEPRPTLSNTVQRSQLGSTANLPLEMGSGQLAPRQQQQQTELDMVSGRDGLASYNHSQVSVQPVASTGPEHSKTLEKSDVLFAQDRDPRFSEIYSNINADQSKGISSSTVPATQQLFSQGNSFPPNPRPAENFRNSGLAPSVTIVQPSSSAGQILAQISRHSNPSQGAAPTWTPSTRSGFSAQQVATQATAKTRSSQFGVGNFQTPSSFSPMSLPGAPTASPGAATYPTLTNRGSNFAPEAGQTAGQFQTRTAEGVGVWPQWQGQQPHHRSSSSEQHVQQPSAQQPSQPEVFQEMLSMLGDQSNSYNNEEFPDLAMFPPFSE
# AhR/ARNT heteromer (guinea pig liver) (Cavia porcellus), one chain, as listed by the source, chain 1 of 2: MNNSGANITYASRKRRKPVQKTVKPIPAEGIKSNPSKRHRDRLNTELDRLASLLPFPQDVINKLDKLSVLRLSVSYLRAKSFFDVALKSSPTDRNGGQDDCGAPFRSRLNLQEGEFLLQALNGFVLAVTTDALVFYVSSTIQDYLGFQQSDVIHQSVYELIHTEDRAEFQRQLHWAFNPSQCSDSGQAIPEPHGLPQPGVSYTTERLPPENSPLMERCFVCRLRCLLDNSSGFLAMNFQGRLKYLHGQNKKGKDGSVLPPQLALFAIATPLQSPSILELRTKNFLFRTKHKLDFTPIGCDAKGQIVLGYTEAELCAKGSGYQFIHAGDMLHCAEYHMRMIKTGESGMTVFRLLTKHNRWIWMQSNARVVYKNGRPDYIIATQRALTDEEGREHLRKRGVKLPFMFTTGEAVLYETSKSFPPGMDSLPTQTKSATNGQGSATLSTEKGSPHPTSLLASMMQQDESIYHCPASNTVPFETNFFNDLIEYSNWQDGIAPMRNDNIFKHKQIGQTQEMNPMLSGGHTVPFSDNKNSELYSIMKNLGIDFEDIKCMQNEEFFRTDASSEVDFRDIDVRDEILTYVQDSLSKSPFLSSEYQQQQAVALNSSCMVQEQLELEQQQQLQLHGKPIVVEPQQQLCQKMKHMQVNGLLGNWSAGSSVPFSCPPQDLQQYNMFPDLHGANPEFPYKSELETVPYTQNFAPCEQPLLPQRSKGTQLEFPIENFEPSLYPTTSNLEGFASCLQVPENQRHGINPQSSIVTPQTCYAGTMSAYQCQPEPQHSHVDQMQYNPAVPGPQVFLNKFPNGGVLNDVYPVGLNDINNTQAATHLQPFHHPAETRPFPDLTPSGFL
# At least one result comes from cells or an extract, where the contact may be indirect.
# Key:
# [1] = tested on: AhR/ARNT heteromer (rat liver) (Rattus norvegicus); assay: binding assay; conditions: antibody capture then real-time PCR; ligand (TCDD) EC50 2.8 pg in assay; protein in an extract
# [2] = tested on: AhR/GST-ARNT(1-474) heterodimer (Mus musculus); assay: binding assay; conditions: anti-GST capture PCR; signal 3013 with 10 uM BNF vs 363 DMSO; 60 mM NaCl, salmon sperm DNA; protein in an extract
# [3] = tested on: AhR/ARNT heteromer (guinea pig liver) (Cavia porcellus); assay: binding assay; conditions: antibody capture then real-time PCR; ligand (TCDD) EC50 2.6 pg in assay; protein in an extract
# [4] = tested on: AhR/biotinylated GST-ARNT(1-474) heterodimer; assay: binding assay; conditions: neutravidin capture PCR; BNF 392 vs DMSO 122 at 500 fmol tracer; 60 mM NaCl, salmon sperm DNA; protein in an extract; protein details: GST and biotin (Sulfo-NHS-LC-Biotin) on ARNT
# [5] = tested on: AhR/ARNT heteromer (Hepa 1c1c7) (Mus musculus); assay: binding assay; conditions: anti-ARNT capture then PCR; binding increases with TCDD (5430 counts at 0, 504879 at 1000 fmol) or BNF; protein in an extract
# [6] = tested on: HIF-1 alpha/ARNT (HIF-1 beta) heterodimer (Homo sapiens); assay: binding assay; conditions: anti-ARNT capture real-time PCR; Ct 20.47 CoCl2-treated vs 23.08 untreated cytosol; nuclear extract Ct 23.5; protein in an extract
# [7] = tested on: HIF-1 alpha/ARNT (HIF-1 beta) heterodimer (Homo sapiens); assay: competition with a labelled probe; conditions: 100x competitor raises Ct 20.47 to 22.52 (treated cytosol) and 23.5 to 26.51 (nuclear extract); protein in an extract
sequence,measurement,setting,value
CAACTTCATCCACGTTCACCTCGAGCTGGGGGCATTGCGTGACAAGCCGTACCTGTCCTTGGCTCTTC (double strand) [DRE tracer (DRE1/DRE2)],binding result,[1],binds
same,binding result,[2],binds
same,binding result,[3],binds
same,binding result,[4],binds
same,binding result,[5],binds
CAACTTCATCCAGTCTCACCGATCGCCCTACGTGCTGTCTCGACTCTGTCCTTGGCTCTAC (double strand) [HRE tracer (HRE1/HRE2)],binding result,[6],binds
GATCGCCCTACGTGCTGTCTC (double strand) [competitor HRE (HRECo1/HRECo2)],binding result,[7],binds
